{
  "source": "patent US20080213813A1",
  "about": "“Histone deacetylase inhibitor and use thereof” (priority 2002, published 2008)",
  "test_system": "HeLa cells",
  "assay": "Microtubule stability against Colcemid in HeLa cells (immunofluorescence)",
  "format": "cell-based, human",
  "details": "1 μM Colcemid 15 minutes, no pretreatment, FIG. 11",
  "description": "HeLa cells were plated on the Lab-TekII Chambered Coverglass (Nunc), and were subjected to:\n(1) treatment for 16 hours with 1 μM Paclitaxel (Sigma), a microtubule polymerizing agent;\n(3) the introduction of HDAC6 antisense oligonucleotide No. 16 at a final concentration of 200 nM with OligofectAMINE followed by a 24-hour culture.\nColcemid (a derivative of colchicine) was dissolve in ethanol, and added to the medium to the final concentration of 1 μM, and the cells were incubated for 15 minutes (a time in which the microtubule is almost completely disappears without pre-treatment). […]",
  "data": [
    {"smiles": "CN[C@H]1CCc2cc(OC)c(OC)c(OC)c2-c2ccc(OC)c(=O)cc21", "note": "[Colcemid]", "values": [
      {"measurement": "microtubules in cells not pretreated", "result": "the microtuble disappeared"}
    ]}
  ]
}
